Some of these results come from one statement about several compounds together. At least one structure is not confirmed: it was looked up by name or label, or the drawing left a doubt.
Biological target: T1, PDZ2 of PSD-95 (Rattus norvegicus, UniProt P31016)
T1 construct: His tag (N); made in house; host or cells: Escherichia coli BL21 (DE3), pET14b
Experiment: NMR chemical shift perturbation assay (1H-15N HSQC) of binding to 15N-labeled PDZ2
Conditions: 10-fold excess of compound relative to PDZ2
Protocol: In this specific non-limiting example, the PDZ-domain of recombinant PSD-95 was uniformly labeled with ^15N using the recombinant protein production method described. The ^15N-labeled PSD-95 was expressed in and purified from E. coli bacterial cells. The NMR spectra was acquired at 30° C. on Varian Inova 500 or 750 spectrometers each equipped with a 5 mm z-shielded gradient triple resonance probes. Lyophilized ^15N-labeled PDZ2 protein dissolved in 100 mM potassium phosphate buffer at pH 6.0, with a pure recombinant protein concentration of ˜0.1-0.2 mM (typically 0.5 ml in 100 mM phosphate buffer) for spectral analysis.
Since the identity of every resonances of the ^1H-^15N HSQC spectrum of PSD-95 PDZ domains is known, and the three dimensional structures of the PSD-95 PDZ domains could be elucidated, the quantitative values of compound-induced chemical shift changes for each amino acid residues of PSD-95 PDZ2 were computed using the equation: Δppm=[(ΔδHN)^2+(ΔδN·αN)^2]^1/2 […]
Using preparation techniques mentioned above, a ^1H,^15N HSQC spectrum was recorded for each mixture of bound PDZ2 protein, and compared with the ^1H,^15N HSQC spectrum of free PSD-95 PDZ2 (˜0.1 mM in the same buffer). […]

Amino acid sequences for entries named in this document (tags omitted). Residues count along the entry.
UniProt P31016, 156-249: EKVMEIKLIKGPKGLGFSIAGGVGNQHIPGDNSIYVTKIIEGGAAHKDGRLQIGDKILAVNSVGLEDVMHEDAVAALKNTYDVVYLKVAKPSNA

For `COc1c(O[C@H]2O[C@H](C(=O)O)[C@@H](O)[C@H](O)[C@H]2O)cc2oc(-c3ccccc3)cc(=O)c2c1O` [oroxylin A-glucuronide], the “structural perturbation of PDZ2 (chemical shift of amide groups of Ser 173 and Ala 231 normalized to maximal shift with crude extract = 100%)” value was 10%-20%.
`COc1c(O[C@@H]2O[C@H](C(=O)O)[C@@H](O)[C@H](O)[C@H]2O)cc(O)c2c(=O)cc(-c3ccccc3)oc12` [wogonoside] was tested, and the “structural perturbation of PDZ2 (chemical shift of amide groups of Ser 173 and Ala 231 normalized to maximal shift with crude extract = 100%)” value was 10%-20%.

— patent US20050233377A1, “Drug screening method for the treatment of brain damage” (priority 2004, published 2005)
